# Source: the supplement of paper PMC4604168 (melanoma cell lines)
# This is one part of the list. Single values are uncertain, as repeats are few or missing.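 The apoptosis fraction was the count of cleaved-PARP antibody-stained nuclei relative to all DNA-stained nuclei, imaged in 1,536-well plates. Screening doses were set so most cells survived, and baseline and induced cleaved-PARP levels vary greatly across cell lines.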
# Tests used:
# Experiment in all cases: cleaved PARP positive nuclei fraction relative to DMSO control; melanoma cells; higher = more apoptosis
# Details in all cases: library dose: low library concentration; 72 h
# [1] = tested on: WM115
# [2] = tested on: WM1716
# [3] = tested on: WM1745
# [4] = tested on: WM3526
# [5] = tested on: WM3619
# [6] = tested on: WM451Lu
Compound,cleaved PARP positive nuclei fraction [1],cleaved PARP positive nuclei fraction [2],cleaved PARP positive nuclei fraction [3],cleaved PARP positive nuclei fraction [4],cleaved PARP positive nuclei fraction [5],cleaved PARP positive nuclei fraction [6]
"Cn1nnc2c(C(N)=O)ncn2c1=O [temozolomide] + CC1(C)NC(=O)N(c2ccc([N+](=O)[O-])c(C(F)(F)F)c2)C1=O [nilutamide] (first compound 2 µM, partner dose 1 µM)",65.7%,177%,186%,120%,130%,109%
"CC1(C)NC(=O)N(c2ccc([N+](=O)[O-])c(C(F)(F)F)c2)C1=O [nilutamide] + O=C(Nc1ccccc1)c1cc([N+](=O)[O-])ccc1Cl [GW9662] (first compound 1 µM, partner dose 2 µM)",109%,64.5%,121%,38.2%,91.6%,222%
"OCCn1cc(-c2cnc3nnn(Cc4ccc5ncccc5c4)c3n2)cn1 + O=C(Nc1cccc(Cl)c1)Nc1ncc(CCNc2ncnc3ccsc23)s1 [SNS314] (first compound 1 µM, partner dose 0.0008 µM)",66.4%,41.4%,78.3%,244%,107%,72.4%
"Nc1cccc2c1CN(C1CCC(=O)NC1=O)C2=O (configuration not stated) [lenalidomide] + CC(C)(C)c1cnc(CSc2cnc(NC(=O)C3CCNCC3)s2)o1 [SNS-032] (first compound 1 µM, partner dose 0.01 µM)",48.9%,104%,108%,51.5%,106%,100%
"Cc1nc(Nc2ncc(C(=O)Nc3c(C)cccc3Cl)s2)cc(N2CCN(CCO)CC2)n1 [dasatanib] + NCC(=O)Nc1ccc(-n2nc(C(F)(F)F)cc2-c2ccc3c(ccc4ccccc43)c2)cc1 [OSU03012] (first compound 0.004 µM, partner dose 1 µM)",75.9%,101%,140%,248%,113%,139%
"O=C(CCCCCCC(=O)Nc1ccccc1)NO [vorinostat] + COc1cc(N2CCC(N3CCN(C)CC3)CC2)ccc1Nc1ncc(Cl)c(Nc2ccccc2S(=O)(=O)C(C)C)n1 [NVP-TAE684] (first compound 0.08 µM, partner dose 0.08 µM)",86.4%,118%,91.4%,70.5%,90%,105%
"OCc1c[nH]c2ccccc12 [Indole-3-carbinol] + O=S(=O)(c1ccccc1)N(CC(F)(F)F)c1ccc(C(O)(C(F)(F)F)C(F)(F)F)cc1 [T0901317] (first compound 0.8 µM, partner dose 1.4 µM)",41.3%,97.8%,92%,152%,108%,147%
"Cn1nnc2c(C(N)=O)ncn2c1=O [temozolomide] + Oc1cc(-c2nc(-c3ccccc3)[nH]c2-c2ccncc2)ccc1Cl [L779450] (first compound 2 µM, partner dose 0.2 µM)",171%,76.9%,94.8%,231%,74.8%,40.1%
"CC1(C)NC(=O)N(c2ccc([N+](=O)[O-])c(C(F)(F)F)c2)C1=O [nilutamide] + Oc1nc(-c2ccc(C(F)(F)F)cc2)nc2c1CSCC2 [XAV939] (first compound 1 µM, partner dose 2 µM)",74.7%,196%,118%,134%,81.9%,29.9%
"Nc1cccc2c1CN(C1CCC(=O)NC1=O)C2=O (configuration not stated) [lenalidomide] + O=C(O)C(=O)Nc1sc2c(c1C(=O)O)CCNC2 [TCS401] (first compound 1 µM, partner dose 1.66667 µM)",94.5%,76.4%,106%,64%,86.4%,75.3%
"C[C@]1(c2nc3c(C(N)=O)cccc3[nH]2)CCCN1 [Veliparib] + COc1cc(N2CCC(N3CCN(C)CC3)CC2)ccc1Nc1ncc(Cl)c(Nc2ccccc2S(=O)(=O)C(C)C)n1 [NVP-TAE684] (first compound 1.4 µM, partner dose 0.08 µM)",94.8%,104%,126%,71.7%,110%,73.3%
"Clc1ccc(Nc2nnc(Cc3ccncc3)c3ccccc23)cc1 [vatalanib] + O=C(CCCCCCC(=O)Nc1ccccc1)NO [vorinostat] (first compound 2 µM, partner dose 0.08 µM)",113%,202%,99.4%,66%,107%,61%
"CO[C@@H]1[C@H](N(C)C(=O)c2ccccc2)C[C@H]2O[C@]1(C)n1c3ccccc3c3c4c(c5c6ccccc6n2c5c31)C(=O)NC4 [Midostaurin] + O=C(Nc1ccccc1)c1cc([N+](=O)[O-])ccc1Cl [GW9662] (first compound 0.08 µM, partner dose 2 µM)",75.4%,211%,114%,154%,89.8%,132%
"C=CCNC1=C2C[C@@H](C)C[C@H](OC)[C@H](O)[C@@H](C)/C=C(\C)[C@H](OC(N)=O)[C@@H](OC)/C=C\C=C(/C)C(=O)NC(=CC1=O)C2=O [Tanespimycin] + Clc1ccc(Nc2nnc(Cc3ccncc3)c3ccccc23)cc1 [vatalanib] (first compound 0.002 µM, partner dose 2 µM)",198%,70.1%,124%,44%,152%,111%
"C#Cc1cccc(Nc2ncnc3cc(OCCOC)c(OCCOC)cc23)c1 [erlotinib] + O=C(O)c1ccc(-c2c[nH]c3ncc(-c4ccccc4)cc23)cc1C1CCCC1 [GSK650394] (first compound 0.8 µM, partner dose 0.16 µM)",87.9%,180%,120%,187%,101%,93.1%
"Cc1nc(Nc2ncc(C(=O)Nc3c(C)cccc3Cl)s2)cc(N2CCN(CCO)CC2)n1 [dasatanib] + Oc1nc(-c2ccc(C(F)(F)F)cc2)nc2c1CSCC2 [XAV939] (first compound 0.004 µM, partner dose 2 µM)",403%,279%,224%,67.4%,107%,31.9%
"Nc1cccc2c1CN(C1CCC(=O)NC1=O)C2=O (configuration not stated) [lenalidomide] + CN(NC(=O)CC(=O)NN(C)C(=S)c1ccccc1)C(=S)c1ccccc1 [STA4783] (first compound 1 µM, partner dose 0.006 µM)",63.1%,151%,216%,125%,179%,32.1%
"C#Cc1cccc(Nc2ncnc3cc(OCCOC)c(OCCOC)cc23)c1 [erlotinib] + CCc1ccc(CCOc2ccc(CC3SC(=O)NC3=O)cc2)nc1 [pioglitazone] (first compound 0.8 µM, partner dose 2 µM)",128%,58.3%,140%,160%,115%,109%
"Cc1ccc(NC(=O)c2cccc(N(C)C)c2)cc1NC(=O)c1ccc(O)cc1 + Cn1cc(/C=C2\C(=O)Nc3cccnc32)c2ccccc21 [GW441756] (first compound 2 µM, partner dose 0.4 µM)",213%,21.1%,118%,179%,77%,108%
"Nc1cccc2c1CN(C1CCC(=O)NC1=O)C2=O (configuration not stated) [lenalidomide] + NCC(=O)Nc1ccc(-n2nc(C(F)(F)F)cc2-c2ccc3c(ccc4ccccc43)c2)cc1 [OSU03012] (first compound 1 µM, partner dose 1 µM)",49.8%,46.1%,105%,119%,84.7%,376%
"Nc1cccc2c1CN(C1CCC(=O)NC1=O)C2=O (configuration not stated) [lenalidomide] + COc1cc2c(Oc3ccc4[nH]c(C)cc4c3F)ncnc2cc1OCCCN1CCCC1 [cediranib] (first compound 1 µM, partner dose 0.4 µM)",48.2%,117%,98.3%,66.6%,88.9%,58.9%
"OCc1c[nH]c2ccccc12 [Indole-3-carbinol] + O=C(O)c1ccc(-c2c[nH]c3ncc(-c4ccccc4)cc23)cc1C1CCCC1 [GSK650394] (first compound 0.8 µM, partner dose 0.16 µM)",90.7%,88.7%,95.2%,54.6%,110%,57.2%
"C=CCn1c(=O)c2cnc(Nc3ccc(N4CCN(C)CC4)cc3)nc2n1-c1cccc(C(C)(C)O)n1 + Cc1cc([N+](=O)[O-])ccc1NS(=O)(=O)c1cc(Cl)ccc1Cl [FH535] (first compound 0.02 µM, partner dose 1 µM)",243%,151%,129%,61.5%,112%,316%
"OCc1c[nH]c2ccccc12 [Indole-3-carbinol] + COc1cc2ncnc(Nc3ccc(Oc4ccccc4)cc3)c2cc1OC [SrcI1] (first compound 0.8 µM, partner dose 2 µM)",141%,36.9%,96.7%,35.5%,781%,43.9%
"O=C(Nc1cccc(Cl)c1)Nc1ncc(CCNc2ncnc3ccsc23)s1 + Cc1cc([N+](=O)[O-])ccc1NS(=O)(=O)c1cc(Cl)ccc1Cl [FH535] (first compound 0.0008 µM, partner dose 1 µM)",108%,103%,106%,69.7%,93.7%,63.6%
"Cn1cncc1[C@@](N)(c1ccc(Cl)cc1)c1ccc2c(c1)c(-c1cccc(Cl)c1)cc(=O)n2C [tipifarnib] + CCCCCCCCCCCC1=C(O)C(=O)C=C(O)C1=O [Embelin] (first compound 0.01 µM, partner dose 1.2 µM)",166%,15.6%,95.5%,80.2%,74.7%,124%
"CC(C)(C)c1cnc(CSc2cnc(NC(=O)C3CCNCC3)s2)o1 + CC(C)CCN1c2nc(Nc3cc(F)c(O)c(F)c3)ncc2N(C)C(=O)C1C [BID1870] (first compound 0.01 µM, partner dose 0.2 µM)",109%,147%,110%,159%,93.7%,31.7%

# Just cleaved PARP positive nuclei fraction [4], cleaved PARP positive nuclei fraction [2] and cleaved PARP positive nuclei fraction [5], for some of the entries so far:
Compound	cleaved PARP positive nuclei fraction [4]	cleaved PARP positive nuclei fraction [2]	cleaved PARP positive nuclei fraction [5]
Clc1ccc(Nc2nnc(Cc3ccncc3)c3ccccc23)cc1 [vatalanib] + O=C(CCCCCCC(=O)Nc1ccccc1)NO [vorinostat] (first compound 2 µM, partner dose 0.08 µM)	66%	202%	107%
CO[C@@H]1[C@H](N(C)C(=O)c2ccccc2)C[C@H]2O[C@]1(C)n1c3ccccc3c3c4c(c5c6ccccc6n2c5c31)C(=O)NC4 [Midostaurin] + O=C(Nc1ccccc1)c1cc([N+](=O)[O-])ccc1Cl [GW9662] (first compound 0.08 µM, partner dose 2 µM)	154%	211%	89.8%
